PubChem BioAssay AID652272 | Drosophila RNAi Screening Center, 2013

Test: 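Genome-wide knock-down search for components of Hedgehog signalling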 (primary screen)
System: Drosophila clone 8 (Cl8) cells
Reagent: long dsRNA against Drosophila genes
Measured: 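Firefly light from a Hedgehog-responsive ptc promoter reporter and Renilla reference light, both read on a plate reader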
Direction: firefly Hh reporter signal: higher = more ptc reporter light; Renilla reference signal: higher = more Renilla control light
Hit rule: 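Hit when the z-score averaged over two replicates is under -2 or over +3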
Calls: active = hit: reporter lowered or raised; inactive = not a hit
In all, the deposit lists about 21,000 reagents; below is a random part of those that have a named target and a result. Over the whole deposit, 503 (2.4%) are marked active. 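Raw plate light values, not normalised; calls rest on replicate z-scores that were not deposited; hits include reporter decreases as well as increases.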 A number with no mark means an inactive call. The numbers tell different reagents against one gene apart. The record does not give: the amount of reagent, the time to read-out.

pk #1
- firefly Hh reporter signal, replicate 1: 79696
- firefly Hh reporter signal, replicate 2: 42137
- Renilla reference signal, replicate 1: 1834
- Renilla reference signal, replicate 2: 3659

pk #2
- firefly Hh reporter signal, replicate 1: 1.40e5
- firefly Hh reporter signal, replicate 2: 72707
- Renilla reference signal, replicate 1: 4224
- Renilla reference signal, replicate 2: 7232

Phf5a
- firefly Hh reporter signal, replicate 1: 92471
- firefly Hh reporter signal, replicate 2: 49201
- Renilla reference signal, replicate 1: 2067
- Renilla reference signal, replicate 2: 6138

CG7778
- firefly Hh reporter signal, replicate 1: 85505
- firefly Hh reporter signal, replicate 2: 88416
- Renilla reference signal, replicate 1: 3794
- Renilla reference signal, replicate 2: 3696

parvin
- firefly Hh reporter signal, replicate 1: 76560
- firefly Hh reporter signal, replicate 2: 2.01e5
- Renilla reference signal, replicate 1: 1321
- Renilla reference signal, replicate 2: 8176

CG7963
- firefly Hh reporter signal, replicate 1: 62180
- firefly Hh reporter signal, replicate 2: 96549
- Renilla reference signal, replicate 1: 1812
- Renilla reference signal, replicate 2: 2586

alpha-Man-Ia #1
- firefly Hh reporter signal, replicate 1: 4.13e5
- firefly Hh reporter signal, replicate 2: 1.28e5
- Renilla reference signal, replicate 1: 25360
- Renilla reference signal, replicate 2: 3088

alpha-Man-Ia #2
- firefly Hh reporter signal, replicate 1: 62211
- firefly Hh reporter signal, replicate 2: 1.55e5
- Renilla reference signal, replicate 1: 1942
- Renilla reference signal, replicate 2: 5847

alpha-Man-Ia #3
- firefly Hh reporter signal, replicate 1: 68912
- firefly Hh reporter signal, replicate 2: 1.44e5
- Renilla reference signal, replicate 1: 1776
- Renilla reference signal, replicate 2: 4746

alpha-Man-Ia #4
- firefly Hh reporter signal, replicate 1: 53976
- firefly Hh reporter signal, replicate 2: 1.51e5
- Renilla reference signal, replicate 1: 1386
- Renilla reference signal, replicate 2: 4603

sofe
- firefly Hh reporter signal, replicate 1: 1.06e5
- firefly Hh reporter signal, replicate 2: 1.10e5
- Renilla reference signal, replicate 1: 2317
- Renilla reference signal, replicate 2: 2632

Ack-like
- firefly Hh reporter signal, replicate 1: 1.14e5
- firefly Hh reporter signal, replicate 2: 40980
- Renilla reference signal, replicate 1: 4058
- Renilla reference signal, replicate 2: 1338

Quoted from the listing (2 entries):
alpha-Man-Ia #2
- firefly Hh reporter signal, replicate 1: 62211
- firefly Hh reporter signal, replicate 2: 1.55e5
- Renilla reference signal, replicate 1: 1942
- Renilla reference signal, replicate 2: 5847

alpha-Man-Ia #3
- firefly Hh reporter signal, replicate 1: 68912
- firefly Hh reporter signal, replicate 2: 1.44e5
- Renilla reference signal, replicate 1: 1776
- Renilla reference signal, replicate 2: 4746

The listing continues.
CG7201
- firefly Hh reporter signal, replicate 1: 49604
- firefly Hh reporter signal, replicate 2: 63754
- Renilla reference signal, replicate 1: 5245
- Renilla reference signal, replicate 2: 4144

Rpt6R
- firefly Hh reporter signal, replicate 1: 89499
- firefly Hh reporter signal, replicate 2: 1.31e5
- Renilla reference signal, replicate 1: 2785
- Renilla reference signal, replicate 2: 3608

Bro
- firefly Hh reporter signal, replicate 1: 75299
- firefly Hh reporter signal, replicate 2: 36776
- Renilla reference signal, replicate 1: 2480
- Renilla reference signal, replicate 2: 2733

CG10089 #1
- firefly Hh reporter signal, replicate 1: 56373
- firefly Hh reporter signal, replicate 2: 20359
- firefly Hh reporter signal, replicate 3: 38144
- Renilla reference signal, replicate 1: 2724
- Renilla reference signal, replicate 2: 3018

CG10089 #2
- firefly Hh reporter signal, replicate 1: 56726
- firefly Hh reporter signal, replicate 2: 41120
- firefly Hh reporter signal, replicate 3: 53729
- Renilla reference signal, replicate 1: 4066
- Renilla reference signal, replicate 2: 3290

CG3065
- firefly Hh reporter signal, replicate 1: 99382
- firefly Hh reporter signal, replicate 2: 59857
- Renilla reference signal, replicate 1: 3600
- Renilla reference signal, replicate 2: 2347

CR10991
- firefly Hh reporter signal, replicate 1: 1.48e5
- firefly Hh reporter signal, replicate 2: 1.83e5
- Renilla reference signal, replicate 1: 5696
- Renilla reference signal, replicate 2: 4845

RhoGAP19D #1
- firefly Hh reporter signal, replicate 1: 89635
- firefly Hh reporter signal, replicate 2: 75362
- Renilla reference signal, replicate 1: 2481
- Renilla reference signal, replicate 2: 2225

RhoGAP19D #2
- firefly Hh reporter signal, replicate 1: 1.13e5
- firefly Hh reporter signal, replicate 2: 2.66e5
- Renilla reference signal, replicate 1: 3068
- Renilla reference signal, replicate 2: 11216

CG13226
- firefly Hh reporter signal, replicate 1: 77193
- firefly Hh reporter signal, replicate 2: 48908
- Renilla reference signal, replicate 1: 2144
- Renilla reference signal, replicate 2: 3344

CG14434
- firefly Hh reporter signal, replicate 1: 72695
- firefly Hh reporter signal, replicate 2: 1.50e5
- Renilla reference signal, replicate 1: 3236
- Renilla reference signal, replicate 2: 5664

Usp14
- firefly Hh reporter signal, replicate 1: 1.13e5
- firefly Hh reporter signal, replicate 2: 77224
- Renilla reference signal, replicate 1: 4605
- Renilla reference signal, replicate 2: 3584

CG13962
- firefly Hh reporter signal, replicate 1: 85152
- firefly Hh reporter signal, replicate 2: 67479
- Renilla reference signal, replicate 1: 2249
- Renilla reference signal, replicate 2: 4984

PpD6
- firefly Hh reporter signal, replicate 1: 1.34e5
- firefly Hh reporter signal, replicate 2: 54688
- Renilla reference signal, replicate 1: 3385
- Renilla reference signal, replicate 2: 5914

CG14740
- firefly Hh reporter signal, replicate 1: 96379
- firefly Hh reporter signal, replicate 2: 1.01e5
- Renilla reference signal, replicate 1: 3749
- Renilla reference signal, replicate 2: 3904
